No constants are given. Whether binding was seen depends on the method and setting. In cells and extracts the contact can be indirect. Binding calls can cover weak binding; strength is not graded here.
Target: vinculin (human (endogenous in HASMC)) (UniProt P18206)
Assay: co-IP

Protein sequences, listed by entry. Tags and fused reporters are not part of them. Lines headed by an entry give the natural chain unless they say otherwise; changes in a name come on top.
UniProt P18206: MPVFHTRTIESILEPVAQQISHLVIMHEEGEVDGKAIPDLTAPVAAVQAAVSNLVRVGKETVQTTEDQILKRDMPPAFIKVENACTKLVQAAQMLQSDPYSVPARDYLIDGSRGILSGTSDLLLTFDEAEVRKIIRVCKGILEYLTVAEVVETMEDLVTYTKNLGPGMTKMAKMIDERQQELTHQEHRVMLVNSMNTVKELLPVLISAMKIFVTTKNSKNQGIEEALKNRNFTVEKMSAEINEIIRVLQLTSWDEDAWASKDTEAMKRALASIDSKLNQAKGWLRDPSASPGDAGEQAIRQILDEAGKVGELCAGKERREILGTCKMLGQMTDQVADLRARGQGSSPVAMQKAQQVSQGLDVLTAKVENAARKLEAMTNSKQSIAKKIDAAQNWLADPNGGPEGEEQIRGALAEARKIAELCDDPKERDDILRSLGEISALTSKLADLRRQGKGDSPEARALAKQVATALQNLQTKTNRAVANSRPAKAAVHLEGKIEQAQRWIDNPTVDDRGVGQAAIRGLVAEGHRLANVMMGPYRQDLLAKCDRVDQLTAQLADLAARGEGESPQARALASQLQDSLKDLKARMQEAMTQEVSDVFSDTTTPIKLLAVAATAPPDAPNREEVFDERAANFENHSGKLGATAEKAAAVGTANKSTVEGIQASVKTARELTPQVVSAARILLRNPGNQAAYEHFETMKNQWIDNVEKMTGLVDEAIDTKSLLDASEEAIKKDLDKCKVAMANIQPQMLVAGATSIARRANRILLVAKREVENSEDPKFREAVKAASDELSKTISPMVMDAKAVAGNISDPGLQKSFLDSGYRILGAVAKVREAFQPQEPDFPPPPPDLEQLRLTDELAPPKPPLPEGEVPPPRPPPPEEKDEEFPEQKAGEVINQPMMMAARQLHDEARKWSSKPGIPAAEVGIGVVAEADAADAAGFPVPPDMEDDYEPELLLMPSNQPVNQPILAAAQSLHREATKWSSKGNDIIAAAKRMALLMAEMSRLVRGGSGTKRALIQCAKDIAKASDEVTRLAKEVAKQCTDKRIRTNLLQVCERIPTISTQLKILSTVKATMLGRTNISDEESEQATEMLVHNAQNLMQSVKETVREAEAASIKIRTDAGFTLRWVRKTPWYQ
UniProt O00401: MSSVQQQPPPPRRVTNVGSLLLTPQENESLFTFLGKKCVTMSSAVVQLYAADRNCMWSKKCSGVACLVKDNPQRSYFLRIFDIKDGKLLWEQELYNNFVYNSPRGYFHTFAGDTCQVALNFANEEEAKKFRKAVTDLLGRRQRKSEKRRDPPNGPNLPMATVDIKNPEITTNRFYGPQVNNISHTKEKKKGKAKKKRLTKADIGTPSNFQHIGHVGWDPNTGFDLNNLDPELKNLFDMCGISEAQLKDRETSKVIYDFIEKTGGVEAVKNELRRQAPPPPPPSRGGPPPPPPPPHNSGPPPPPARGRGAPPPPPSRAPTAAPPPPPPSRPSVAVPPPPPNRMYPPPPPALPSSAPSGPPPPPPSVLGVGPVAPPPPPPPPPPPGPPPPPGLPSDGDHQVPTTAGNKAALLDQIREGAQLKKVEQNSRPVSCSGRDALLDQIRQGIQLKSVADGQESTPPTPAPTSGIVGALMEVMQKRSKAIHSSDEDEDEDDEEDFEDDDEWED
UniProt O60234: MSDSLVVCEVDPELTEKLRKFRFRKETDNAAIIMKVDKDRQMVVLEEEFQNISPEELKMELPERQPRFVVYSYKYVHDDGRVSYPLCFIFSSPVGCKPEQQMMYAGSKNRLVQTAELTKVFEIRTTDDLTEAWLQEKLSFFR

| Substance | binding |
| --- | --- |
| Neural Wiskott-Aldrich syndrome protein phosphorylated at tyrosine 256, N-WASP (pY256) (from UniProt O00401 1-505) | binds |
| Glia maturation factor-γ (GMFγ) (from UniProt O60234 1-142) | binds |
